# ± gives the standard deviation of the averaged measurements. The list shows a part of the results. Values are raw readings; no control value is given beside them.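 The test system is a mixed culture of neurons, microglia and astrocytes in which bacterial LPS triggers microglia-driven neuron loss, modelling inflammatory neurodegeneration. Each compound was compared with vehicle (DMSO) wells on the same plates, and the SYK inhibitor BAY61-3606 served as the reference neuroprotective control.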
# Test system: rat primary cerebellar neuron-glia coculture
# Test: necrotic cell count (DRAQ7+) per image field (cells per field); higher = more necrosis
# Details: LPS 0 ng/mL; 1 µM; treatment time 3 days
# Procedure: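 Primary rat (P3-7) cerebellar neuron-glia cocultures in 384-well plates were treated at DIV7 with 1 uM compound, then with or without 100 ng/mL LPS 30 min later, for 3 days. At DIV10 live cells were stained with Hoechst 33342, NeuO (live neurons), IB4-AF594 (microglia) and DRAQ7 (necrotic cells) and imaged at 10x (4 fields per well, IN Cell Analyzer 6000). Cells were classified with Cellpose/CellProfiler plus a Random Trees classifier. Values are per-well mean counts per image field (raw, not min-max normalised) and the median microglial FormFactor per image. Three technical replicates per repeat across 4 biological repeats; DMSO and BAY61-3606 serve as controls.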
row,SMILES,necrotic cell count
1,Cc1cccc([C@H](C)c2c[nH]cn2)c1C,82.7 ± 39
2,COc1ccc2c(c[n+](C)c3c4cc5c(cc4ccc23)OCO5)c1OC,83.1 ± 37
3,C[N+]1(C)CCO[C@@](O)(c2ccc(-c3ccc([C@@]4(O)C[N+](C)(C)CCO4)cc3)cc2)C1,76.1 ± 30
4,C=C(C)[C@H]1Cc2c(ccc3c2O[C@@H]2COc4cc(OC)c(OC)cc4[C@@H]2C3=O)O1,547 ± 180
5,Cn1c(CCCC(=O)O)nc2cc(N(CCCl)CCCl)ccc21,92.8 ± 48
6,Clc1ccc(OC[C@H]2CCN2)cn1,81.8 ± 32

# Same assay, conditions: LPS 100 ng/mL; 1 µM; treatment time 3 days
row,SMILES,necrotic cell count
1,Cc1cccc([C@H](C)c2c[nH]cn2)c1C,874 ± 340
2,COc1ccc2c(c[n+](C)c3c4cc5c(cc4ccc23)OCO5)c1OC,1010 ± 490
3,C[N+]1(C)CCO[C@@](O)(c2ccc(-c3ccc([C@@]4(O)C[N+](C)(C)CCO4)cc3)cc2)C1,1000 ± 300
4,C=C(C)[C@H]1Cc2c(ccc3c2O[C@@H]2COc4cc(OC)c(OC)cc4[C@@H]2C3=O)O1,1490 ± 330
5,Cn1c(CCCC(=O)O)nc2cc(N(CCCl)CCCl)ccc21,1050 ± 450
6,Clc1ccc(OC[C@H]2CCN2)cn1,973 ± 330

# Source: the supplement of paper PMC10973195
